The values that follow come from patent US20180141989A1 (BOARD OF REGENTS OF THE UNIVERSITY OF OKLAHOMA, published 2018).

By UniProt entry, the sequences of proteins in these tests, tags left out. Where a name states a change or a piece, a line headed by the entry shows the natural chain unless it says otherwise.
UniProt O60894: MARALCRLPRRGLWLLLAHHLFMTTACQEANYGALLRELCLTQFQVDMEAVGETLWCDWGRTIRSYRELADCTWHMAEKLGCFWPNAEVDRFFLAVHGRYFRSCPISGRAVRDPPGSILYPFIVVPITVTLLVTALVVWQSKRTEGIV
UniProt P30988: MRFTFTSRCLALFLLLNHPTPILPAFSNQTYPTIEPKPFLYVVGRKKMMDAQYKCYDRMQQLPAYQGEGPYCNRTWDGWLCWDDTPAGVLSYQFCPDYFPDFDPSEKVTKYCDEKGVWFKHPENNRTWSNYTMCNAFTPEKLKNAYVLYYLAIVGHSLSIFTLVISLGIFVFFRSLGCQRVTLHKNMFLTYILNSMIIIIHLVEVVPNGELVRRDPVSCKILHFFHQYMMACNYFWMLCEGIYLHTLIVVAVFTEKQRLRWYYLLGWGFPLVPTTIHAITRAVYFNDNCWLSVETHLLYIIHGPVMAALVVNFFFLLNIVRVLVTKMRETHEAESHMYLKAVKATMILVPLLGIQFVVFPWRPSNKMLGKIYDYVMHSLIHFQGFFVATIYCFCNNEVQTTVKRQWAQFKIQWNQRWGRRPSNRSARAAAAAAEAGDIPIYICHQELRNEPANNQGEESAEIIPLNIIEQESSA

These are yes or no findings as the source states them, for the method shown. Some binding calls cover weakened binding; strength is not graded here.

For this assay, the target named is MBP-RAMP1 ECD-(GS)5-CTR ECD-H6 fusion protein (human) (UniProt O60894+P30988). Kind of assay: AlphaLISA competition (FIG. 6).

B1: CGRP(27-37)NH2 [N31D, S34P, K35W, A36S] (peptide)
peptide: FVPTDVGPWSF
modifications: C-terminal amide
In the case of B1, the binding entry is “binds”.

B2: AM(37-52)NH2 [S45W, K46L, Q50W, Y52F] (peptide)
peptide: DKDNVAPRWLISPWGF
modifications: C-terminal amide
As for B2, the binding entry was “binds”.
